Source: patent US20250085290A1
Changes are numbered by the printed parent chain. No constants are given. Whether binding was seen depends on the method and setting. Some entries that bind do so weakly or less than the wild type.

B1: SEQ ID NO 51 (designed binder)
chain: MLSPPSNLRVTDVTSTSVTLSWKPPAPITGYIVFYGESLSEGEWKTVNVPGSETSYTVTGLKPGTEYTFGVDAVNGATFGPPSQWVFVTT
B2: SEQ ID NO 60 (designed binder)
chain: MLSPPSNLRVTDVTSTSVTLSWKPPAPITGYFVLYKELLQDGEWKTVLVPGSETSYTVTGLKPGTEYPFPVWAVNGALAGFPSQFVEVTT
B3: SEQ ID NO 61 (designed binder)
chain: MLSPPSNLRVTDVTSTSVTLSWKPPAPITGYAVYYNETWFQGEWKHVVVPGSETSYTVTGLKPGTEYYFHVEAVNGANPGKPSQHVVVTT
B4: SEQ ID NO 62 (designed binder)
chain: B1 chain with I32T, F34G, G36I, S38H, L39P, S40L, E41S, T46I, N48Y
B5: SEQ ID NO 63 (designed binder)
chain: MLSPPSNLRVTDVTSTSVTLSWKPPAPITGYSVTYNETTLDGEWKQVSVPGSETSYTVTGLKPGTEYVFSVNAVNGAKEGEPSQWVVVTT
B6: SEQ ID NO 64 (designed binder)
chain: B1 chain with I32Q, F34V, G36S, L39V, S40G, E41W, T46Q, N48K, T68W
B7: SEQ ID NO 65 (designed binder)
chain: MLSPPSNLRVTDVTSTSVTLSWKPPAPITGYGVSYEEVYGFGEWKHVYVPGSETSYTVTGLKPGTEYVFSVLAVNGATFGPPSQWVFVTT
B8: SEQ ID NO 66 (designed binder)
chain: MLSPPSNLRVTDVTSTSVTLSWKPPAPITGYYVNYYEGPSDGEWKYVKVPGSETSYTVTGLKPGTEYWFWVQAVNGASVGPPSQDVGVTT
B9: SEQ ID NO 67 (designed binder)
chain: B1 chain with I32Y, F34R, G36S, L39V, S40D, E41Y, T46W, N48L
B10: SEQ ID NO 68 (designed binder)
chain: B1 chain with I32Y, F34S, G36E, S38H, L39P, S40N, E41D, T46Y, N48E
B11: SEQ ID NO 69 (designed binder)
chain: B1 chain with I32F, F34S, G36T, S38G, S40E, E41Q, T46F, N48L
B12: SEQ ID NO 52 (designed binder)
chain: MLSPPSNLRVTDVTSTSVTLSWKPPAPITGYAVLYTETYYEGEWKQVHVPGSETSYTVTGLKPGTEYDFRVSAVNGATIGTPSQYVIVTT
B13: SEQ ID NO 70 (designed binder)
chain: B1 chain with I32W, F34T, G36E, L39T, E41H, T46F, N48W
B14: SEQ ID NO 71 (designed binder)
chain: B1 chain with I32G, F34L, G36Q, S40H, E41D, T46W, N48L
B15: SEQ ID NO 72 (designed binder)
chain: MLSPPSNLRVTDVTSTSVTLSWKPPAPITGYYVFYDETVFLGEWKHVYVPGSETSYTVTGLKPGTEYAFTVAAVNGAVQGNPSQGVVVTT
B16: SEQ ID NO 73 (designed binder)
chain: MLSPPSNLRVTDVTSTSVTLSWKPPAPITGYYVQYNETTLTGEWKQVRVPGSETSYTVTGLKPGTEYIFNVHAVNGAHYGDPSQVVTVTT
B17: SEQ ID NO 53 (designed binder)
chain: B1 chain with I32V, F34L, G36W, S38A, L39S, S40V, E41Q, T46W, N48L
B18: SEQ ID NO 54 (designed binder)
chain: B1 chain with I32R, F34G, G36V, S38H, S40G, E41A, T46F, N48W
B19: SEQ ID NO 55 (designed binder)
chain: B1 chain with I32W, F34K, G36E, S38G, L39P, S40E, E41Y, N48H
B20: SEQ ID NO 56 (designed binder)
chain: MLSPPSNLRVTDVTSTSVTLSWKPPAPITGYPVHYAESDLKGEWKRVVVPGSETSYTVTGLKPGTEYVFIVQAVNGAVDGNPSQIVVVTT
B21: SEQ ID NO 57 (designed binder)
chain: B1 chain with I32V, F34V, G36Q, S38T, L39I, S40H, E41P, T46N, N48H, T68W
B22: SEQ ID NO 58 (designed binder)
chain: MLSPPSNLRVTDVTSTSVTLSWKPPAPITGYWVSYLESTFIGEWKWVHVPGSETSYTVTGLKPGTEYVFVVQAVNGAPFGGPSQHVVVTT
B23: SEQ ID NO 59 (designed binder)
chain: B12 chain with A32I, L34H, T36S, T38F, Y39I, Y40F, E41V, Q46H, H48L

What follows are binders tested against CD71 (UniProt P02786) (assay: CIS display panning, then ELISA).

binding, binds:
B1, B2, B3, B4, B5, B6, B7, B8, B9, B10, B11, B12, B13, B14, B15, B16, B17, B18, B19, B20, B21, B22, B23
